# Reference: PubChem BioAssay AID1671190 (National Center for Advancing Translational Sciences (NCATS), 2021)
# Protein sequences, listed by entry. Tags and fused reporters are not part of them. Lines headed by an entry give the natural chain unless they say otherwise; changes in a name come on top.
# UniProt P18054: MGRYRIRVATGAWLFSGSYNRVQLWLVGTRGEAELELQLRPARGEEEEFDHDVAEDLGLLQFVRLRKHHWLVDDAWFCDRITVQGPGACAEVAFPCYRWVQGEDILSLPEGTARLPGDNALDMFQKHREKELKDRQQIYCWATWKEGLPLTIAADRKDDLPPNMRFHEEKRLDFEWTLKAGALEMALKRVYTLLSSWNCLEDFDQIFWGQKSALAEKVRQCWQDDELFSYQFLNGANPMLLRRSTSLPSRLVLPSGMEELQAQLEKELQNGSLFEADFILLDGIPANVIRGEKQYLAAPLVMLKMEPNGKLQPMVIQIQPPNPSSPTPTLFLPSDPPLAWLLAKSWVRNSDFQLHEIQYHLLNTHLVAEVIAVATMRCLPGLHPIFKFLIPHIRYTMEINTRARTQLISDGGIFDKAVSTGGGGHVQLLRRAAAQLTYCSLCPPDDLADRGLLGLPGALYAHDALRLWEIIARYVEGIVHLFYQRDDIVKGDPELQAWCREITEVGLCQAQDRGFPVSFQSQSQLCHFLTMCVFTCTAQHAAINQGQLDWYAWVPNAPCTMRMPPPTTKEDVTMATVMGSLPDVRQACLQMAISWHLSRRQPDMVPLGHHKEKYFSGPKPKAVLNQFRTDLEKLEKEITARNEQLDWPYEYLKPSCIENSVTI
# The whole screen tested about 580,000 compounds, of which about 6,100 (1.1%) were called active. This list was built around the results that the source calls inconclusive (neither active nor inactive); the mix of calls is not that of the screen. Calls follow the shape of the dose curve; as a rule, active = well fitted inhibition curve with a large enough effect; inconclusive = small, poorly fitted or top-dose-only effect, or another doubt; inactive = no such curve, though single readings can be large or run the other way. Potencies of inconclusive entries are doubtful fits and often do not repeat.
# Molecular target: Polyunsaturated fatty acid lipoxygenase ALOX12 (Homo sapiens) (UniProt P18054)
# Experiment: Primary qHTS assay for inhibitors of human arachidonate 12S-lipoxygenase (ALOX12): Round 2
# Settings: purified 12hLO, xylenol orange hydroperoxide absorbance; activity change, negative = inhibition: at 108 µM (top of the series) unless noted
# Summary of the method: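 Purified human 12hLO at 150 nM in 25 mM Hepes, 0.01% Triton X-100, pH 7.0, preincubated 15 min at room temperature with compound. Reaction started with 40 uM arachidonic acid, 30 min at room temperature. Hydroperoxide measured by Fe-xylenol orange, 573/405 nm absorbance ratio.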
# % is scaled to controls: 0 for no effect and ±100 for the full control effect; potency is read from the fitted curve at half-maximal effect.
Structure (SMILES),"activity change, negative = inhibition",Potency
COc1cc(OC)cc(-c2nnc(NC(=O)Cc3ccc(F)cc3)o2)c1,inactive: 0.0672%,
O=[N+]([O-])c1cccc(N/N=C/c2ccccc2Br)c1,,"inconclusive: 2.51 µM [inhibitor, full curve, poor fit]"
CCc1ccc2c(CN(C)CCOc3ccc(C)cc3)cc(=O)oc2c1,,"inconclusive: 56.2 µM [inhibitor, partial curve, poor fit]"
N#Cc1c(-c2ccncc2)c2c([nH]c1=S)CCCC2,,active: 20 µM
CCSc1nsc(NC(=O)Nc2cccc(OC)c2)n1,inconclusive: -36.8% [inhibitor],
CC1(Cc2cccc(C(F)(F)F)c2)C(=O)Nc2ccc(-c3ccc(F)c(Cl)c3)cc21 (stereo unspecified),,"inconclusive: 79.4 µM [inhibitor, partial curve, poor fit]"
O=c1cc(-c2cccnc2)oc2c(-c3ccccc3F)nccc12,,"inconclusive: 70.8 µM [inhibitor, partial curve]"
COc1ccc([N+](=O)[O-])cc1NC(=O)CSc1ccc2ccccc2c1,,"inconclusive: 39.8 µM [inhibitor, partial curve]"
Cc1cc(=O)c(C(=O)OCC#N)nn1-c1cccc(C(F)(F)F)c1,,"inconclusive: 15.8 µM [inhibitor, partial curve]"
Cc1ccc(OCC(=O)NC2CCCCCC2)cc1C,inactive: 0%,
CC(C)(C)OC(=O)N1Cc2ccccc2C[C@H]1C(=O)NCC1CCCO1 (stereo partly specified),inactive: -9.68%,
CC(=O)/C(=C\N(C)C)Sc1ccc(C)cc1,,"inconclusive: 79.4 µM [inhibitor, partial curve, poor fit]"
Cc1ccc(C(=O)OCC(=O)NCc2ccc(Cl)cc2Cl)o1,,"inconclusive: 89.1 µM [inhibitor, single point]"
c1ccc(-c2nc(NCc3ccco3)c3ccccc3n2)cc1,,"inconclusive: 39.8 µM [inhibitor, partial curve]"
O=C1CC(C(=O)NCc2ccc(C(F)(F)F)cc2)c2ccccc2N1 (stereo unspecified),inactive: 8.39%,
Cc1cnc(C(=O)OCC(=O)Nc2ncc(Cl)cc2Cl)cn1,,"inconclusive: 44.7 µM [inhibitor, partial curve, poor fit]"
CCCCOC(=O)COc1ccc2c(=O)c(-c3ccccc3OC)coc2c1,,"inconclusive: 35.5 µM [inhibitor, partial curve, poor fit]"
CCc1ccc([C@H]2C[C@H]3[C@H]4C(=O)N(c5ccccc5)C(=O)[C@H]4CC(=O)[C@@H]3CN2S(=O)(=O)c2ccc(C)cc2)cc1,,"inconclusive: 89.1 µM [inhibitor, single point]"
Cc1c(CCOC(=O)c2ccccc2)sc[n+]1Cc1ccccc1,inactive: -24.8%,
COc1cnc(-c2ccccn2)nc1Oc1cccc(C(F)(F)F)c1,,"inconclusive: 12.6 µM [inhibitor, partial curve, poor fit]"
O=C(O)c1cc(-c2ccc(Cl)c(Cl)c2)n(-c2ccc(F)cc2)n1,,"inconclusive: 35.5 µM [inhibitor, partial curve, poor fit]"
CN(Cc1ccccc1)c1cc2c(c3c1ccn3C)C1CCC2O1 (stereo unspecified),,"inconclusive: 44.7 µM [inhibitor, partial curve, poor fit]"

Structure (SMILES),"activity change, negative = inhibition",Potency
CN(C)c1ccc(Nc2nc(N)c3ccccc3n2)cc1,,"inconclusive: 44.7 µM [inhibitor, partial curve, poor fit]"
O=C(NCCCN1CCCCC1)C1CCN(c2ncnc3c2nc2n3CCCCC2)CC1,inactive: -3.95%,
COc1ccc(C2CC(c3ccc(Cl)cc3)Nc3nc(NC(=O)c4ccco4)nn32)cc1 (stereo unspecified),,"inconclusive: 28.2 µM [inhibitor, single point]"
CC(C)Oc1nc2ccccc2nc1N1CCC(C(=O)Nc2ccc(Cl)cc2)CC1,,"inconclusive: 112 µM [inhibitor, single point]"
CC(C)Cc1nc(OCC(=O)N2CCOCC2)c(C#N)c2c1CCCC2,inactive: 2.22%,
COc1ccccc1NC(=O)CCc1c(C)nc2c(-c3ccc(F)cc3)c(C)nn2c1C,inactive: -8.62%,
Cc1ccc(S(=O)(=O)CC(CN2CCOCC2)N2CCOCC2)cc1 (stereo unspecified),inactive: 1.48%,
CCOc1ccc(NC(=O)CN(C)C(=O)Cn2c(=O)oc3ccccc32)cc1OCC,,"inconclusive: 0.0891 µM [inhibitor, full curve, poor fit]"
CCCC1=NN2C(=N)/C(=C\c3cc(C)n(-c4cccc(C)c4)c3C)C(=O)N=C2S1,inactive: 12%,
CC(C)c1ccc(N2C(=O)N[C@@H]3CCN(C(=O)c4ccc(C(C)(C)C)cc4)[C@@H]3C2=O)cc1,,"inconclusive: 112 µM [inhibitor, partial curve, poor fit]"
COCCNC(=O)C[C@@H]1C[C@H]2O[C@H](CNCc3ccccc3C(F)(F)F)[C@@H](O)[C@H]2O1,,"inconclusive: 141 µM [inhibitor, partial curve, poor fit]"
CCC(=O)c1ccc(OCC(O)CN2CCN(c3cccc(C(F)(F)F)c3)CC2)cc1 (stereo unspecified),,"inconclusive: 15.8 µM [inhibitor, partial curve, poor fit]"
O=C(CCc1ccccc1)N1CCOCC12CCN(Cc1ccccc1)CC2,inactive: 10.6% [at 176 µM],
CC(C)c1ccc(OCC(=O)c2ccc3c(c2)N(CCCC(=O)NCC2CC2)C(=O)CO3)cc1,,"inconclusive: 141 µM [inhibitor, partial curve, poor fit]"
CC(C)CC1=NN2C(=N)/C(=C\c3coc4ccccc4c3=O)C(=O)N=C2S1,,"inconclusive: 44.7 µM [inhibitor, partial curve, poor fit]"
CC(C)=CC(=O)Nc1nnc(-c2ccc(F)cc2)s1,,"inconclusive: 224 µM [inhibitor, partial curve, poor fit]"
Nc1nccnc1C(=O)NCc1ccc(CN2CCCCC2)cc1,,"inconclusive: 1.78 µM [inhibitor, full curve, poor fit]"
O=C(CCc1ncc(-c2c(F)cccc2F)o1)N1CCN(c2ccc(F)cc2)CC1,inactive: 5.73%,
O=C(O)Cn1cnc2c(=S)nc[nH]c21,,"inconclusive: 1.12 µM [inhibitor, full curve, poor fit]"
N#Cc1ccc(-c2nc3ccc(Br)cn3c2Cc2ccsc2)cc1,inactive: 0%,
O=C(CSc1nnc(N2CCOCC2)n1-c1cccc(F)c1)Nc1ccc2c(c1)OCCO2,,"inconclusive: 39.8 µM [inhibitor, single point]"
Cc1ccccc1-c1cc(O)c2c(c1)CN(Cc1ccoc1)CCO2,inactive: 25.1%,

Structure (SMILES),"activity change, negative = inhibition",Potency
NC(=O)C1=C(Nc2ccc3ccccc3c2)c2ccccc2S1(=O)=O,,"inconclusive: 39.8 µM [inhibitor, partial curve, poor fit]"
O=C(Nc1cccc(Cl)c1N1CCOCC1)c1ccco1,,"inconclusive: 50.1 µM [inhibitor, partial curve, poor fit]"
COc1cc(C(=O)Nc2ccc3c(c2)C(=O)N(CCC(=O)O)C3=O)cc(OC)c1OC,,"inconclusive: 25.1 µM [inhibitor, single point]"
O=C(O)c1ccc(N/N=C/c2cn(Cc3ccc(F)cc3)c3ccccc23)cc1,,"inconclusive: 44.7 µM [inhibitor, partial curve, poor fit]"
COc1ccc(C(=O)COC(=O)c2cc(-c3cccs3)nc3ccccc23)cc1,inactive: -29.2%,
Cc1ccc(OCc2ccc(C(=O)Nc3c(C)nn(Cc4c(F)c(F)c(F)c(F)c4F)c3C)o2)c([N+](=O)[O-])c1,inconclusive: -34.1% [inhibitor],
CC(C)C(=O)NC1CCCN(C(=O)c2cc(=O)[nH]c3ccccc23)C1 (stereo unspecified),,"inconclusive: 31.6 µM [inhibitor, single point]"
CNC(=O)c1ccc(NC(=O)C2CCN(S(=O)(=O)c3ccc(C)cc3C)CC2)cc1,,"inconclusive: 100 µM [inhibitor, single point]"
C[C@H](NC(=O)c1nc[nH]c1C(=O)NCCCCCNC(=O)OC(C)(C)C)C(=O)OC(C)(C)C,inactive: -11%,
NCCc1nnc(SCc2ccccc2Cl)o1,,"inconclusive: 31.6 µM [inhibitor, single point]"
CNC(=O)/C(C#N)=C\c1ccc(CNS(=O)(=O)c2ccc(Cl)cc2)o1,,active: 44.7 µM
CC(C)C1C(=O)N(Cc2cn(CCC3OCCCO3)nn2)CCS(=O)(=O)N1Cc1ccc(-c2cccc(CO)c2)cc1 (stereo unspecified),inactive: -29.4%,
CC(=O)N1CC2(CC(=O)OC(C)C)CN(C(C)=O)CC(CC(=O)OC(C)C)(C1)C2=O,,"inconclusive: 35.5 µM [inhibitor, partial curve, poor fit]"
CCC1Sc2ccc(S(=O)(=O)N3CCN(c4ccccc4)CC3)cc2NC1=O (stereo unspecified),inactive: -4.47%,
CCc1nn2c(=O)cc(COC(=O)c3ccccc3NC(=O)COc3ccc(C)c(C)c3)nc2s1,inconclusive: -30.4% [inhibitor],
N#Cc1cccc(Cn2cc(C(F)(F)F)ccc2=O)c1,inactive: 147%,
COc1cc(C2c3cc4c(cc3C3OC(=O)C2C3CO)OCO4)cc(OC)c1OC (stereo unspecified),inactive: -3.47%,
CCCn1nc(C(=O)NC(C)c2ccco2)c2ccccc2c1=O (stereo unspecified),,"inconclusive: 70.8 µM [inhibitor, single point]"
CCCCN1C(=O)c2ccc(C(=O)Nc3ccc(S(=O)(=O)N(C)C)cc3)cc2C1=O,,"inconclusive: 1 µM [inhibitor, full curve, poor fit]"
O=S(=O)(c1ccc2ccccc2c1)N1CCN(C(=S)Nc2ccc(F)cc2)CC1,,"inconclusive: 44.7 µM [inhibitor, partial curve]"
COc1ccc(CC(=O)N2CCC(c3n[nH]c(=O)n3-c3ccccc3)CC2)cc1,,"inconclusive: 25.1 µM [inhibitor, full curve, poor fit]"
Cn1c(-c2ccccc2Br)n[nH]c1=S,,"inconclusive: 44.7 µM [inhibitor, partial curve, poor fit]"
